Assay results published in paper PMC4881018, “Sec15 links bud site selection to polarised cell growth and exocytosis in Candida albicans” (Scientific Reports, 2016).
No constants are given. Whether binding was seen depends on the method and setting. For part of these data: Binding seen in cells or lysates may run through a third protein. For part of these data: Binding calls can cover weak binding; strength is not graded here. Values belong to the substance of their own block, whether it stands above or below them.

Experiments:
[1] = target: Sec15-GFP (C. albicans); assay: co-IP; C. albicans cell lysates in HEPES lysis buffer (50 mM Hepes pH 7.5, 1 mM EDTA, 5% glycerol, 0.05% Tween 20, 105 mM KCl); antibody-conjugated beads (anti-GFP, anti-Myc or anti-HA), 4 °C for 2 h; western blot
[2] = target: GST-Sec15^550–892 (C. albicans); assay: pull-down; GST fusion protein immobilised on glutathione-Sepharose beads (20 μl), incubated with 20 μg of purified His-tagged protein in 200 μl binding buffer (1× PBS, 1 mg/ml ovalbumin, 10 mM β-mercaptoethanol, 0.1% IGPAL-30), 1 hour at room temperature; four washes; anti-His blot; both purified
[3] = target: Bem1-HA (C. albicans); assay: co-IP; C. albicans cell lysates in HEPES lysis buffer (50 mM Hepes pH 7.5, 1 mM EDTA, 5% glycerol, 0.05% Tween 20, 105 mM KCl); antibody-conjugated beads (anti-GFP, anti-Myc or anti-HA), 4 °C for 2 h; western blot

binding [1]: binds
Substance: Bem1-HA (from UniProt A0A1D8PLB6 1-632)

binding [2]: no binding (tested: 20 μg)
Substance: His-Bem1^301–632 (from UniProt A0A1D8PLB6 301-632) (domain or fragment)

binding [3]: binds
Substance: Sec15-GFP (from UniProt A0A1D8PM29 1-892)
